Data published in the supplement of paper PMC5836539.
± gives the standard deviation of the averaged measurements. This data set is noisy: repeats of one test often differ as much as different tests do.

Chains of the proteins cited; added tags and fusions are not shown. Lines headed by an entry give the natural chain unless they say otherwise; changes in a name come on top.
UniProt Q9NRF8: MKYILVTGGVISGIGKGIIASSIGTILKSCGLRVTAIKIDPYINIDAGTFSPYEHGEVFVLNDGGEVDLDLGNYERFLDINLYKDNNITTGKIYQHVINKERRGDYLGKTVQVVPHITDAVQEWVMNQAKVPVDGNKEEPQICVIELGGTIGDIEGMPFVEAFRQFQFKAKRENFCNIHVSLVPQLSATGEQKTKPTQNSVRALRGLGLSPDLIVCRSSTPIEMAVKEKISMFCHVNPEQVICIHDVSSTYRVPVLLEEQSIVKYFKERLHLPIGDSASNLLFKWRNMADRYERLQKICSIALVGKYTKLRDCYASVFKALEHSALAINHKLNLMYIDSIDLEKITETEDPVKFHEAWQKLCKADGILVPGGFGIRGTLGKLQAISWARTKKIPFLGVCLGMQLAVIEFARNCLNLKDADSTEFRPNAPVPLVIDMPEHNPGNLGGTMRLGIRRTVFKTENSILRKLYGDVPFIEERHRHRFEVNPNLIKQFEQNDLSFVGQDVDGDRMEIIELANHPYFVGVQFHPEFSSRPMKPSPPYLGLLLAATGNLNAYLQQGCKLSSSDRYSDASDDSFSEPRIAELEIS
UniProt Q3B726, whole entry, looked up: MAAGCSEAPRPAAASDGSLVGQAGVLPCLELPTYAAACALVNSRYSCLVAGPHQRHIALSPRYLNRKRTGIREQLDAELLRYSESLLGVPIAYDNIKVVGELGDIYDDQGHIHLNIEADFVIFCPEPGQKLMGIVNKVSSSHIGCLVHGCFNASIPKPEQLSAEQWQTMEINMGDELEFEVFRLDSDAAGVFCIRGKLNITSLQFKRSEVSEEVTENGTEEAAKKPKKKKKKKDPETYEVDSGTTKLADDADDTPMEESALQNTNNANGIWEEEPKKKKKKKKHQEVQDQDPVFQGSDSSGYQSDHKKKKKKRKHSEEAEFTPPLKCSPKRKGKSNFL
UniProt Q9UQ35: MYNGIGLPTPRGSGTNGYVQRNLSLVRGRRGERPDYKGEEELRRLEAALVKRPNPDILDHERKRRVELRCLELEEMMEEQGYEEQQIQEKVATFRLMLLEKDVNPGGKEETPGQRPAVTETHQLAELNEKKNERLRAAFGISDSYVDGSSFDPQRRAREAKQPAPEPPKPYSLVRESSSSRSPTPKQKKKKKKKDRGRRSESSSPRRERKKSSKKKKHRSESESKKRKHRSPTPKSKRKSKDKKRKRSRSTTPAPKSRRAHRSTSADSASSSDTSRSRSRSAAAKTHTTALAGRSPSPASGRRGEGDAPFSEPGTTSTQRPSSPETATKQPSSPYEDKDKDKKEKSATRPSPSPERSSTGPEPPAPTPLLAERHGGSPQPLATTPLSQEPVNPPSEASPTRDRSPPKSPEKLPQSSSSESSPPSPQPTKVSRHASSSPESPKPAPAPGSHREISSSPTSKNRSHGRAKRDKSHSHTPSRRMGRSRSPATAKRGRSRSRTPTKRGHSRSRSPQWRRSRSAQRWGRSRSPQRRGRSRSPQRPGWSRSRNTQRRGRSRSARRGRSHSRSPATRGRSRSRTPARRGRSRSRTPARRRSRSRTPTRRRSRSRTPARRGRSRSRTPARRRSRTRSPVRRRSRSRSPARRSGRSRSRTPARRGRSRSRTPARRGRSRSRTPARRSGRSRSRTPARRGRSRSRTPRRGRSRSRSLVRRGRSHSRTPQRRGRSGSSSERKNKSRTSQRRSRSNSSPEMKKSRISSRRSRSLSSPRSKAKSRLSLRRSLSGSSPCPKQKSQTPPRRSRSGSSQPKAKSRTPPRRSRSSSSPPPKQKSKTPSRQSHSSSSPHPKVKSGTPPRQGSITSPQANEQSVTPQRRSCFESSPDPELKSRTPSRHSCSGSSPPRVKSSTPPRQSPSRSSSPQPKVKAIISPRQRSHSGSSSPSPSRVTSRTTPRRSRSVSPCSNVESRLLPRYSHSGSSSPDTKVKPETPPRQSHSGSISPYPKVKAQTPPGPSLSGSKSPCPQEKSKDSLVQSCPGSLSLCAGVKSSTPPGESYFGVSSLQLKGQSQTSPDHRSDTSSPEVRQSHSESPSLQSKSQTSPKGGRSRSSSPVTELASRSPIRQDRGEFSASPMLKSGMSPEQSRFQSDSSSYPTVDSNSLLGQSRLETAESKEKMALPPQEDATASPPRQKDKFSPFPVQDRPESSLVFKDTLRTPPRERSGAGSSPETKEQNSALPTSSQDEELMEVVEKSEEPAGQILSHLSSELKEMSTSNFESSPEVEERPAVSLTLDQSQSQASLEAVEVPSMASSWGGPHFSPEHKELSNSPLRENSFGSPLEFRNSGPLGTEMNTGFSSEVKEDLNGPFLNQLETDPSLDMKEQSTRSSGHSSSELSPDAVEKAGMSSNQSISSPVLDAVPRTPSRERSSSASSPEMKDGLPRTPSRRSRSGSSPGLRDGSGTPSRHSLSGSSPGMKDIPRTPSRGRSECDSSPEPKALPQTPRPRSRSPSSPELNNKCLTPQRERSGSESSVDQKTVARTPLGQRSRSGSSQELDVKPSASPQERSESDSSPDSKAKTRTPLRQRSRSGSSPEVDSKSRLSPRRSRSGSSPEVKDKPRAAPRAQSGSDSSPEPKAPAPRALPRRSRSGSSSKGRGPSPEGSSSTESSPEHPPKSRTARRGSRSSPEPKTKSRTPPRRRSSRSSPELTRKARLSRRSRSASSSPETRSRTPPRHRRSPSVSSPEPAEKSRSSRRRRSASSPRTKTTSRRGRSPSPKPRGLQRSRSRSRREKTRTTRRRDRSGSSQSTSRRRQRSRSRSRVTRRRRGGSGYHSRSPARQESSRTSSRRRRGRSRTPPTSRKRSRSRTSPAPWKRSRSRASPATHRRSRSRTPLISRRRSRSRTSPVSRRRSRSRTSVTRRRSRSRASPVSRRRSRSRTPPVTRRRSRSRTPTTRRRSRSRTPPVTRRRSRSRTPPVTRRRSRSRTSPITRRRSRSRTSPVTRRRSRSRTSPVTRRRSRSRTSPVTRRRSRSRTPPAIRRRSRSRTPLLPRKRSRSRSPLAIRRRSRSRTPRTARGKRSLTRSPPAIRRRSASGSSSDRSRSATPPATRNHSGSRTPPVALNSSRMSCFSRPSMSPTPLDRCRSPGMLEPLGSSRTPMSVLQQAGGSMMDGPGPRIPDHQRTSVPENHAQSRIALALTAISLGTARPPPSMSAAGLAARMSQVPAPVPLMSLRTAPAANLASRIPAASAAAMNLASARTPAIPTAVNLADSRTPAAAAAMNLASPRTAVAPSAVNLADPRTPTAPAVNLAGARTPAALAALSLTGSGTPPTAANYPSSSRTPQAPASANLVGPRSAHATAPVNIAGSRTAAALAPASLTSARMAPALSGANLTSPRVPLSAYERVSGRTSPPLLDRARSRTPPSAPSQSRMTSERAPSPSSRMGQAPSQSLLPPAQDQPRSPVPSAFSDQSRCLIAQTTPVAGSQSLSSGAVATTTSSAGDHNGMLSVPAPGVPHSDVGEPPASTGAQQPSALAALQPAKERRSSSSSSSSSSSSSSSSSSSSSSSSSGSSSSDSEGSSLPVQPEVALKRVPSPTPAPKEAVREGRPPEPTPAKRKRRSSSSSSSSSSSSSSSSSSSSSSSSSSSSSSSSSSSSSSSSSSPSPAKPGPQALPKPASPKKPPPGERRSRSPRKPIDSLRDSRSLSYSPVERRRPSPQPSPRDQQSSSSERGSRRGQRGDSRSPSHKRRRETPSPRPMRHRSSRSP
UniProt Q9Y2I7: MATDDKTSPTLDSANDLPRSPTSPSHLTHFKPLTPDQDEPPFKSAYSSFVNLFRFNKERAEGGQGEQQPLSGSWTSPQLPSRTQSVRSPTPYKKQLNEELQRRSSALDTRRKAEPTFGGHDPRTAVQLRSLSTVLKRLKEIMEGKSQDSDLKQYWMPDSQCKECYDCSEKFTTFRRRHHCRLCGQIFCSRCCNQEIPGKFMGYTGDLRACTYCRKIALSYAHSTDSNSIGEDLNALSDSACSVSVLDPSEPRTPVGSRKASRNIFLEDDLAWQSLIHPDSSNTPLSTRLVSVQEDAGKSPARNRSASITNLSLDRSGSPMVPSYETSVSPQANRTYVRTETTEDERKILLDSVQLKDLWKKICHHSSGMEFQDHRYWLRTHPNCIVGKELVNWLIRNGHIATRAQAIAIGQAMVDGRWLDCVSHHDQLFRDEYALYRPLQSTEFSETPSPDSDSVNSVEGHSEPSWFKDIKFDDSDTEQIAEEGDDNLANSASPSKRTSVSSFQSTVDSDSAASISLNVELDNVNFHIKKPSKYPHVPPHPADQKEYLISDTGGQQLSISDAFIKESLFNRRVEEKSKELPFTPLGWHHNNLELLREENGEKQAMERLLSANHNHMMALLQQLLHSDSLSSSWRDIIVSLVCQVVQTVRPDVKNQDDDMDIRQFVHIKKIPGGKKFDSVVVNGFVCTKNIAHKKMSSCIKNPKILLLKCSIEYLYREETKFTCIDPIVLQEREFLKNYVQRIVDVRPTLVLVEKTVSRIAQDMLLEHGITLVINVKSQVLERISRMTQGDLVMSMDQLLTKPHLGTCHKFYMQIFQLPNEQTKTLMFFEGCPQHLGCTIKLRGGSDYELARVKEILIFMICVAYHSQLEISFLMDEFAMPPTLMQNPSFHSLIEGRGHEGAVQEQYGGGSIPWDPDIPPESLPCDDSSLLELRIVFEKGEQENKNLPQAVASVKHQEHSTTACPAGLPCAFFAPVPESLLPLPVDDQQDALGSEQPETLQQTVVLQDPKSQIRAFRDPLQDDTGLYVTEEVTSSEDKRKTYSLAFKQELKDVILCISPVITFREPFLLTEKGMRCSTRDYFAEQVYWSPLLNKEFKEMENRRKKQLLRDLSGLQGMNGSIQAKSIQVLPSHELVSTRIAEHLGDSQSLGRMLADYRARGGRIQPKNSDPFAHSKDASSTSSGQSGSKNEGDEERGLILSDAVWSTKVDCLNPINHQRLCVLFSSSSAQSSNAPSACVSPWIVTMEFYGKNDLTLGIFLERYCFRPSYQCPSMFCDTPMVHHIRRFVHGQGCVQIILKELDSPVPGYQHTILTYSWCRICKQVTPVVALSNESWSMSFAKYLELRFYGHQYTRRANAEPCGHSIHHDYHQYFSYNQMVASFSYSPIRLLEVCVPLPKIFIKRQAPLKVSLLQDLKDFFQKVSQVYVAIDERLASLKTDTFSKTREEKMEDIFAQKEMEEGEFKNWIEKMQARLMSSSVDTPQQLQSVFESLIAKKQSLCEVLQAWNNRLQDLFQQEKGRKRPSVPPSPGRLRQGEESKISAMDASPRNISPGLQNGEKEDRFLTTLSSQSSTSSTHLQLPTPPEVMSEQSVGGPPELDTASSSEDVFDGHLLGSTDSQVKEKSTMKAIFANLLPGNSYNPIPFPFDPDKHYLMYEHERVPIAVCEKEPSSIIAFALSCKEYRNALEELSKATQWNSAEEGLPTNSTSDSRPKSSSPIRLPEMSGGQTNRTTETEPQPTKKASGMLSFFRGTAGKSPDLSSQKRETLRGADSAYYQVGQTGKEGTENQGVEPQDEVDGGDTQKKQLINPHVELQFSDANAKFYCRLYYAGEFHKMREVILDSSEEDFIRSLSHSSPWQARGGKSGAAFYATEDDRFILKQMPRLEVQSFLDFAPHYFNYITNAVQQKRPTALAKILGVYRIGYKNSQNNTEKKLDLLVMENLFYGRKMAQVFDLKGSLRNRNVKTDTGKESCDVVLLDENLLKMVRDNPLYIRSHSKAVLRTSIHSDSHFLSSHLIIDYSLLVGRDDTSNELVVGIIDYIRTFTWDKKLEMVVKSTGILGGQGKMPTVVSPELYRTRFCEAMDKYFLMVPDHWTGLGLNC
UniProt Q99638: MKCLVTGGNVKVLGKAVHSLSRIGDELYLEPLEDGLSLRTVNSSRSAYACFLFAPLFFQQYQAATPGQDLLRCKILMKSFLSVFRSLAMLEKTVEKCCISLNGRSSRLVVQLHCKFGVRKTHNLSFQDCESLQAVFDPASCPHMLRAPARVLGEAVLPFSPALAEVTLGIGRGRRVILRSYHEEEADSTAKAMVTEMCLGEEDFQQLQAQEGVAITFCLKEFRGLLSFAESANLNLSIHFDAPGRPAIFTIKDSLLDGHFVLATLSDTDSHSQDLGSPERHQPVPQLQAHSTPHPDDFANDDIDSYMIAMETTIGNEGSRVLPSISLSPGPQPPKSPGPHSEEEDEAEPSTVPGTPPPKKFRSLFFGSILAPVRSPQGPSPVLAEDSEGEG
UniProt P07355, whole entry, looked up: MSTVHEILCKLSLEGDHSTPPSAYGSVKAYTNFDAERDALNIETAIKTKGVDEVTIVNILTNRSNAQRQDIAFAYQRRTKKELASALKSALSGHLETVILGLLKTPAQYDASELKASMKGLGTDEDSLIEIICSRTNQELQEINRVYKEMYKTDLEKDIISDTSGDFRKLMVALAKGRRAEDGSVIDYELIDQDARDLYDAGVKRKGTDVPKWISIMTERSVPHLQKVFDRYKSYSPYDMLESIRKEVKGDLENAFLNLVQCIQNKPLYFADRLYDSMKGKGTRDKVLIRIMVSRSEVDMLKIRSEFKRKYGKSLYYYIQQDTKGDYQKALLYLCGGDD

Compound: CC[C@@H](C)Nc1cc(C(=O)N[C@H]2C[C@H]3CC[C@@H](C2)N3c2ccc(C(=O)C3CC3)cn2)c(C)cc1C(N)=O [XL888]
Experiment: phosphopeptide melting temperature shift (XL888 minus DMSO); higher = stabilised by drug treatment
Details: 100 µM; treatment time 2 h; layout: intact cells; SK-Mel 28
Protocol: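 Phospho-TPP in intact SK-Mel 28 cells treated with 100 uM XL888 or DMSO for 2 h, heated at 10 temperatures (37-67 C) for 3 min, soluble fraction TMT10plex-labelled and TiO2 phospho-enriched. Melting curves were fitted per phosphopeptide; the value is the melting point difference (drug minus vehicle) in each of two biological replicates.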

Row | Target | phosphopeptide melting temperature shift [°C]
1 | OSBPL11 phosphosite_189 (phosphosite position: 189) (UniProt Q9BXB4) | 0.754
2 | UniProt Q9UDT6-2_phosphosite_888 (phosphosite position: 888) | 0.829
3 | UniProt Q9UBL3-2_phosphosite_496 (phosphosite position: 496) | 0.985 ± 1.4
4 | ASF1A phosphosite_166 (phosphosite position: 166) (UniProt Q9Y294) | 0.615 ± 0.45
5 | UniProt P11137-3_phosphosite_281 (phosphosite position: 281) | 2.42 ± 3.1
6 | CTPS2 phosphosite_571 (phosphosite position: 571) (UniProt Q9NRF8) | -4.07
7 | UniProt Q96S38-2_phosphosite_411 (phosphosite position: 411) | -0.445
8 | UBE4B phosphosite_124 (phosphosite position: 124) (UniProt O95155) | 0.698 ± 0.82
9 | TWISTNB phosphosite_316 (phosphosite position: 316) (UniProt Q3B726) | 0.629 ± 0.77
10 | UniProt Q6UUV7-3_phosphosite_443 (phosphosite position: 443) | 1.52 ± 2.4
11 | UniProt O43314-2_phosphosite_492 (phosphosite position: 492) | -1.58
12 | UniProt Q9Y2H0-3_phosphosite_434 (phosphosite position: 434) | -1.94 ± 0.93
13 | UniProt Q92974-3_phosphosite_932 (phosphosite position: 932) | 8
14 | SRRM1 phosphosite_406 (phosphosite position: 406) (UniProt Q8IYB3) | -1.45
15 | SRRM2 phosphosite_295 (phosphosite position: 295) (UniProt Q9UQ35) | 9.67 ± 3.7
16 | MAP1B phosphosite_1339 (phosphosite position: 1339) (UniProt P46821) | -3.97
17 | UniProt P20020-6_phosphosite_1119 (phosphosite position: 1119) | 0.132
18 | UniProt Q96N67-2_phosphosite_900 (phosphosite position: 900) | 2.71
19 | MAP1B phosphosite_1618 (phosphosite position: 1618) (UniProt P46821) | -0.928 ± 1.7
20 | HNRNPA3 phosphosite_358 (phosphosite position: 358) (UniProt P51991) | 0.477 ± 0.011
21 | PACSIN2 phosphosite_387 (phosphosite position: 387) (UniProt Q9UNF0) | -0.497
22 | ATG2B phosphosite_1583 (phosphosite position: 1583) (UniProt Q96BY7) | 4.43
23 | UniProt O14617-2_phosphosite_543 (phosphosite position: 543) | 0.405 ± 0.43

Row | Target | phosphopeptide melting temperature shift [°C]
24 | UniProt Q93074-3_phosphosite_635 (phosphosite position: 635) | 2.04
25 | SRRM2 phosphosite_974 (phosphosite position: 974) (UniProt Q9UQ35) | 6.7 ± 3.7
26 | UBA2 phosphosite_207 (phosphosite position: 207) (UniProt Q9UBT2) | 1.52 ± 0.33
27 | TNS1 phosphosite_338 (phosphosite position: 338) (UniProt Q9HBL0) | 0.7
28 | UniProt P41743_phosphosite_564 (phosphosite position: 564) | -0.0967
29 | UniProt Q86VR2-2_phosphosite_63 (phosphosite position: 63) | 2.14 ± 1.5
30 | UniProt Q9NVS9-2_phosphosite_146 (phosphosite position: 146) | 0.485
31 | UniProt Q9P1Y6-2_phosphosite_1229 (phosphosite position: 1229) | 3.61
32 | TMPO phosphosite_310 (phosphosite position: 310) (UniProt P42166) | 0.527
33 | BICD2 phosphosite_574 (phosphosite position: 574) (UniProt Q8TD16) | 2.74
34 | UTP18 phosphosite_124 (phosphosite position: 124) (UniProt Q9Y5J1) | 1.55 ± 1
35 | UniProt Q9BUJ2-3_phosphosite_151 (phosphosite position: 151) | -0.327 ± 0.13
36 | UniProt Q86VP1-2_phosphosite_624 (phosphosite position: 624) | 0.384
37 | UniProt O43294-2_phosphosite_177 (phosphosite position: 177) | 3.8 ± 2.8
38 | UniProt Q93008-1_phosphosite_1600 (phosphosite position: 1600) | 0.995 ± 0.5
39 | PRMT3 phosphosite_25 (phosphosite position: 25) (UniProt O60678) | 1.72 ± 1.4
40 | UniProt P85037-2_phosphosite_278 (phosphosite position: 278) | 1.27 ± 0.36
41 | UniProt O14617-2_phosphosite_545 (phosphosite position: 545) | 0.423 ± 0.4
42 | UniProt Q9Y5Q9-2_phosphosite_43 (phosphosite position: 43) | 5.06
43 | ANKS1A phosphosite_663 (phosphosite position: 663) (UniProt Q92625) | 2.67
44 | UBE2E3 phosphosite_8 (phosphosite position: 8) (UniProt Q969T4) | 0.177 ± 0.69
45 | UniProt P11274-2_phosphosite_459 (phosphosite position: 459) | 1.28 ± 0.27
46 | TNKS1BP1 phosphosite_1621 (phosphosite position: 1621) (UniProt Q9C0C2) | 4.17

Row | Target | phosphopeptide melting temperature shift [°C]
47 | SRRM2 phosphosite_2121 (phosphosite position: 2121) (UniProt Q9UQ35) | 1.8
48 | UniProt Q9UGR2-2_phosphosite_224 (phosphosite position: 224) | -2.42 ± 1.7
49 | UniProt Q8WWI1-3_phosphosite_1259 (phosphosite position: 1259) | -0.0522
50 | UniProt Q8WVC0-2_phosphosite_151 (phosphosite position: 151) | 1.7 ± 0.71
51 | SRRM2 phosphosite_972 (phosphosite position: 972) (UniProt Q9UQ35) | 5.87
52 | ACTL6A phosphosite_233 (phosphosite position: 233) (UniProt O96019) | 2.94 ± 0.82
53 | UniProt Q9UPN7_phosphosite_759 (phosphosite position: 759) | -0.0189 ± 0.46
54 | SRRM2 phosphosite_890 (phosphosite position: 890) (UniProt Q9UQ35) | 0.704 ± 1.5
55 | UniProt P29590-2_phosphosite_530 (phosphosite position: 530) | -1.72
56 | UniProt Q9Y2I7_phosphosite_22 (phosphosite position: 22) | -1.46 ± 2.1
57 | UniProt Q7Z6Z7-2_phosphosite_3800 (phosphosite position: 3800) | 0.972
58 | CBL phosphosite_452 (phosphosite position: 452) (UniProt P22681) | 1.06
59 | UniProt Q9BYE7-3_phosphosite_115 (phosphosite position: 115) | 2.84
60 | TNS1 phosphosite_733 (phosphosite position: 733) (UniProt Q9HBL0) | 1.1 ± 1.6
61 | RAD9A phosphosite_277 (phosphosite position: 277) (UniProt Q99638) | 1.25 ± 1
62 | UniProt Q71RC2-5_phosphosite_526 (phosphosite position: 526) | 0.39
63 | UniProt Q9H2I8_phosphosite_153 (phosphosite position: 153) | -1.83
64 | UniProt Q9NRA8-2_phosphosite_74 (phosphosite position: 74) | 0.427 ± 0.12
65 | UniProt Q96N67-2_phosphosite_452 (phosphosite position: 452) | 1.95
66 | FAM53C phosphosite_234 (phosphosite position: 234) (UniProt Q9NYF3) | -0.773 ± 1.5
67 | ANXA2 phosphosite_12 (phosphosite position: 12) (UniProt P07355) | 0.0773 ± 0.33

Three records picked at random from those above:
Row | Target | phosphopeptide melting temperature shift [°C]
55 | UniProt P29590-2_phosphosite_530 (phosphosite position: 530) | -1.72
53 | UniProt Q9UPN7_phosphosite_759 (phosphosite position: 759) | -0.0189 ± 0.46
51 | SRRM2 phosphosite_972 (phosphosite position: 972) (UniProt Q9UQ35) | 5.87
